Laboratory results published in patent publication US20140194361A1, “Vault Agents for Treating Chronic Kidney Disease” (priority 2010, published 2014).

System: type 2 diabetic db/db mice
Test: prevention of progression of early DN in type 2 diabetic db/db mice
Assay type: in vivo
Conditions: 2400 μg/kg, diabetic or non-diabetic animals
Excerpt: There was no change in blood pressure or plasma glucose in either the diabetic or non-diabetic animals.
There was no change in creatinine clearance in the cyclic-GRGESP-control peptide treated diabetic animals
In addition, glomerular volume measured by fractional volume of expansion by electron microscopy was normalized, p<0.05 after 12 weeks of treatment.
We investigated the ability of cyclic GRGDSP vs. GRGESP in a pilot study to prevent accumulation of glomerular lesions in early DN in 20 week old diabetic type 2 db/db vs non-diabetic db/m and diabetic type 1 Ins2Akita+ vs. non-diabetic Ins2+/+ mice with GRGESP and […] and observed up to 52% reduction in albuminuria in the type 2 diabetic mice (FIGS. 1-2) and ˜70% reduction in albuminuria in the type 1 diabetic mice (FIG. 6).

GRGDSP [cyclic-GRGDSP]
blood pressure: no change | plasma glucose: no change
